Experimental data published in article doi:10.1101/286708.
Numbering of substitutions follows the chain as printed. Results are given in words; binding and its absence hold for the method and conditions named. Binding seen in cells or lysates may run through a third protein. Some results given as binding are weak or reduced against the parent protein; the word gives no strength. For some assays here: Sequences can lack the tags named with a protein.

Protein sequences, listed by entry. Tags and fused reporters are not part of them.
UniProt Q00987: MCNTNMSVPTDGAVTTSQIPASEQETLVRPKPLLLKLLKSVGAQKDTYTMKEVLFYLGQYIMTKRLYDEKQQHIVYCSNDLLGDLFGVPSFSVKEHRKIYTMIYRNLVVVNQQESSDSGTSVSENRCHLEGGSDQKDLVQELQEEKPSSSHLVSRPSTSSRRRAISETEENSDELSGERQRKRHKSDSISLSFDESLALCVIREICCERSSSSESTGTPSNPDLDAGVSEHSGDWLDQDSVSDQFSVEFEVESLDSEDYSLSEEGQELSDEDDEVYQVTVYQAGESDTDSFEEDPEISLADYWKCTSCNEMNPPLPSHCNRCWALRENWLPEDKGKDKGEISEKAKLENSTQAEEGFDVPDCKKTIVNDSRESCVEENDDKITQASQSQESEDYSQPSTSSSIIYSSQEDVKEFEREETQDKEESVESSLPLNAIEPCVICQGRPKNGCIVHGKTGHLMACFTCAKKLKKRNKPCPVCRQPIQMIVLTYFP

Legend:
[1] = molecular target: T1, endogenous PER2 of HCT116 cells (human (endogenous in HCT116)) (UniProt O15055); experiment: co-IP
T1 sequence: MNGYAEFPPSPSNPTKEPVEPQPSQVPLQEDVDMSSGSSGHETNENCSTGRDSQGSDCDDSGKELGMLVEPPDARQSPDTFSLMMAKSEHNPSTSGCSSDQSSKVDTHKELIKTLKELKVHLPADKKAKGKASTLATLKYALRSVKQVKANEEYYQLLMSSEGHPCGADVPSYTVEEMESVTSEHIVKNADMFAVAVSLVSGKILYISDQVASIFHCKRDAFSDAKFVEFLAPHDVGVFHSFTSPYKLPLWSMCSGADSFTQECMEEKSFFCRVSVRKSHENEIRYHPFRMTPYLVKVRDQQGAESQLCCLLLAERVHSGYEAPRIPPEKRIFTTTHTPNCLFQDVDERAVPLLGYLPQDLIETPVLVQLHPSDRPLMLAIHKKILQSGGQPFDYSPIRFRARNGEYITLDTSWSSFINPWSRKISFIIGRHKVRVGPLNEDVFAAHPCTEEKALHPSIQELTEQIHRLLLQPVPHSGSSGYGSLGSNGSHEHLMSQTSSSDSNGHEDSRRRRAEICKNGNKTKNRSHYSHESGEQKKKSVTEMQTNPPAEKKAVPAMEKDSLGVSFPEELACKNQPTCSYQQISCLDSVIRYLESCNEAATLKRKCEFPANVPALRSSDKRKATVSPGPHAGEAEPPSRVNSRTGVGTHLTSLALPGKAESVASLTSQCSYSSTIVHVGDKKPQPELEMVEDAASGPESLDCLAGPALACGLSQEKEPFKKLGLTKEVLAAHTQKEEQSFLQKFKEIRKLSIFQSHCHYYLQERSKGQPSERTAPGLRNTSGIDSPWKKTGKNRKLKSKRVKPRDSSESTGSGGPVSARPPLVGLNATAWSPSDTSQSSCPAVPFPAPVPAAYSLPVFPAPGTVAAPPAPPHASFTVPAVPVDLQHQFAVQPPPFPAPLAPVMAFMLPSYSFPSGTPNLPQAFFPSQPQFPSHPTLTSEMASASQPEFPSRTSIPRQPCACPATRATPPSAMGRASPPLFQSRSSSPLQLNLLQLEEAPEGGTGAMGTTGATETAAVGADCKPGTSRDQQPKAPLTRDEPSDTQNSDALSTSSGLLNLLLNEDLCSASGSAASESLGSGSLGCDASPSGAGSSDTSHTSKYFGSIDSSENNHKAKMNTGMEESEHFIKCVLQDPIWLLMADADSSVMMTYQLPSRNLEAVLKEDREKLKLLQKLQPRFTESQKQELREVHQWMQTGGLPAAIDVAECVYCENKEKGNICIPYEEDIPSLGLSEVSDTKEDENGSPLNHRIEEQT

[2] = molecular target: T2, FLAG-PER2(S480A) expressed in HCT116 p53+/+ cells (human) (UniProt O15055); experiment: co-IP
T2 sequence: T1 sequence with S480A

binding [1]: binds
binding [2]: binds
Substance: endogenous MDM2 of HCT116 p53+/+ cells (from UniProt Q00987 1-491)
